# Measured values: the supplement of paper PMC3334620
# Over roughly 33,000 sequences, “E-score (-0.5 to 0.5)” has its median near -0.0059; the highest 2% begin near 0.26. The list shows a part of the results.
# Target: T1, Cin5 (UniProt P40917)
# T1 sequence: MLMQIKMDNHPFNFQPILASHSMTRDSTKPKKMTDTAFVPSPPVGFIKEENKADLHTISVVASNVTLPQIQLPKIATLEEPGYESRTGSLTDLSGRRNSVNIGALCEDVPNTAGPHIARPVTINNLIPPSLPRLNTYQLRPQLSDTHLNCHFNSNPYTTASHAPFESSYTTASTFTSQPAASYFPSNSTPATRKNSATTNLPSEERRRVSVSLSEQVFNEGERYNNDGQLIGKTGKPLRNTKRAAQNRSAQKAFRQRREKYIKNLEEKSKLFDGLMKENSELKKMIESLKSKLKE
# Assay: PBM E-score (8-mer binding enrichment) (E-score (-0.5 to 0.5)); higher = stronger / more preferred TF binding
# Details: protein concentration: 100 nM; construct: GST-full length
# Experimental: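 Universal 'all 10-mer' protein binding microarrays (Agilent AMADID 015681) probed with GST-tagged S. cerevisiae TFs (full-length or DBD) made by in vitro transcription/translation (PURExpress), about 100-200 nM. Bound TF was detected with fluorescent anti-GST. Each ungapped 8-mer (which stands for itself and its reverse complement) is scored by the PBM enrichment score (E-score), a modified Wilcoxon-Mann-Whitney statistic from -0.5 to +0.5, computed with the Universal PBM Analysis Suite. Scale: above 0.35 generally sequence-specific binding.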
row,Sequence,PBM E-score
1,GCCCAGGC,-0.288
2,ACTCGCGA,0.214
3,GACGCGCC,-0.155
4,AGCAGCAG,-0.0447
5,CGACCACA,-0.0683
6,CAAAATGA,0.0614
7,GTGGTATA,0.0965
8,ATTATGGC,0.215
9,AACATAAT,0.346
10,CCTTATCC,-0.181
11,ACGAGCAA,-0.148
12,CCCCCTGA,-0.435
13,AGGGGGCA,-0.297
14,AAGAAACT,0.0655
15,CGATCCCA,-0.137
16,ATCTGTTA,0.0842
17,CAATTTTC,0.167
18,AGATCCTC,-0.0453
19,CTATCGTA,0.00956
20,ACCATGAG,0.0218
21,CAATGAAC,0.0503
22,ACACCACG,-0.0488
23,AGAGAGCC,-0.283
24,ATGTTTTA,0.0321
25,AGCATCTG,-0.0965

row,Sequence,PBM E-score
1,TAACCTGA,-0.0251
2,TTGATCAA,0.0336
3,ACGGACGA,0.0654
4,CCAAGCCC,-0.195
5,CAGTAACA,-0.0408
6,GTTGCGGA,0.011
7,ACGAATCC,-0.0262
8,TACAACCA,0.0987
9,CTTTTATA,-0.0821
10,AGCTCTCC,-0.174
11,CCGCAGTC,-0.143
12,CCTTACAG,-0.15
13,TACTTAGA,0.0181
14,ATTCTACA,0.216
15,AGAGGGCC,-0.335
16,AAATTGGG,0.122
17,ACCAGGCA,-0.151
18,CTAACGCC,-0.166
19,GTGGGATA,0.121
20,ATCAGTGG,0.0229
21,ACATTGGG,-0.199
22,AGGGTTAT,0.0281
23,GCTATGTA,-0.0403
24,CCATGAGA,0.0345
25,AATATGGC,0.0377

row,Sequence,PBM E-score
1,AGTGCACA,-0.125
2,CAAAATGC,0.00999
3,AGCCTGTC,-0.148
4,TCCGGGCA,-0.135
5,CCGAGTTC,0.00797
6,TCCTAGAA,-0.157
7,ATAGGGCC,-0.1
8,CCTCGATC,-0.0331
9,CGATACGC,-0.0592
10,GAAACCAA,0.138
11,AAGCGCGC,0.186
12,ACGTGCTG,0.00168
13,CTGTGCCC,-0.115
14,AGTGTTCA,0.181
15,GAGGAGAC,-0.15
16,ACCCGTCC,-0.0181
17,GCCTCCAC,-0.257
18,AGCTCGTG,0.0555
19,ACCGATCC,-0.145
20,CTGCACGA,0.00828
21,AAACGTTT,-0.00291
22,CCTTTAGC,-0.109
23,CATACCGC,-0.00427
24,AAACAGTA,0.11
25,GCATATGA,0.197

# 64 successive entries out of the list so far, quoted:
row,Sequence,PBM E-score
9,AACATAAT,0.346
10,CCTTATCC,-0.181
11,ACGAGCAA,-0.148
12,CCCCCTGA,-0.435
13,AGGGGGCA,-0.297
14,AAGAAACT,0.0655
15,CGATCCCA,-0.137
16,ATCTGTTA,0.0842
17,CAATTTTC,0.167
18,AGATCCTC,-0.0453
19,CTATCGTA,0.00956
20,ACCATGAG,0.0218
21,CAATGAAC,0.0503
22,ACACCACG,-0.0488
23,AGAGAGCC,-0.283
24,ATGTTTTA,0.0321
25,AGCATCTG,-0.0965
1,TAACCTGA,-0.0251
2,TTGATCAA,0.0336
3,ACGGACGA,0.0654
4,CCAAGCCC,-0.195
5,CAGTAACA,-0.0408
6,GTTGCGGA,0.011
7,ACGAATCC,-0.0262
8,TACAACCA,0.0987
9,CTTTTATA,-0.0821
10,AGCTCTCC,-0.174
11,CCGCAGTC,-0.143
12,CCTTACAG,-0.15
13,TACTTAGA,0.0181
14,ATTCTACA,0.216
15,AGAGGGCC,-0.335
16,AAATTGGG,0.122
17,ACCAGGCA,-0.151
18,CTAACGCC,-0.166
19,GTGGGATA,0.121
20,ATCAGTGG,0.0229
21,ACATTGGG,-0.199
22,AGGGTTAT,0.0281
23,GCTATGTA,-0.0403
24,CCATGAGA,0.0345
25,AATATGGC,0.0377
1,AGTGCACA,-0.125
2,CAAAATGC,0.00999
3,AGCCTGTC,-0.148
4,TCCGGGCA,-0.135
5,CCGAGTTC,0.00797
6,TCCTAGAA,-0.157
7,ATAGGGCC,-0.1
8,CCTCGATC,-0.0331
9,CGATACGC,-0.0592
10,GAAACCAA,0.138
11,AAGCGCGC,0.186
12,ACGTGCTG,0.00168
13,CTGTGCCC,-0.115
14,AGTGTTCA,0.181
15,GAGGAGAC,-0.15
16,ACCCGTCC,-0.0181
17,GCCTCCAC,-0.257
18,AGCTCGTG,0.0555
19,ACCGATCC,-0.145
20,CTGCACGA,0.00828
21,AAACGTTT,-0.00291
22,CCTTTAGC,-0.109

# (listing goes on)

row,Sequence,PBM E-score
1,AATGGGCG,-0.101
2,AAGAGTTA,-0.0309
3,CGAGCCTA,-0.134
4,GTCACCAA,-0.0845
5,AATGGGGA,0.0144
6,TGGGGGAA,-0.365
7,ACGCGCTG,-0.032
8,CCACGGTA,-0.141
9,GACACAAC,-0.0406
10,AGGCAGGG,0.0528
11,AGGAGAGG,-0.178
12,CAGCGAGC,-0.0678
13,ATAGGAAT,-0.039
14,GAAGCCCC,-0.179
15,GAAATACC,0.0277
16,CAGCATGG,-0.0225
17,CTTCATGA,0.193
18,ATATGACC,-0.101
19,GAACGCTC,-0.118
20,AGCCCGCC,-0.0566
21,AGCAATCA,0.221
22,ACGCACCC,-0.267
23,CTACGTTC,-0.0564
24,CTCTGTAC,-0.119
25,ATCAGAAT,0.131

row,Sequence,PBM E-score
1,GTCTCCAA,-0.0956
2,CCGACGTA,-0.0159
3,CCTCCTAC,-0.248
4,GTACTAAA,0.0965
5,ACTAGTGC,0.0478
6,CACACCCA,0.117
7,ACACTAAC,0.141
8,ATTTTTGG,0.0157
9,CGATAGAC,-0.0837
10,ATCGCCCC,-0.168
11,CTTACTAC,0.202
12,GGAGGGAC,-0.189
13,CAGGACTG,-0.156
14,CCCCGGAC,-0.233
15,CACCCGGA,0.0998
16,CCACTCAG,-0.104
17,CTTACAGC,-0.0244
18,CAACGGAG,-0.043
19,AGTAAACA,0.21
20,CAAGAAGC,0.0478
21,AGGCCTCA,-0.167
22,GTCGTCTA,0.0507
23,TCCCTCGA,-0.0641
24,CGAACGCG,0.00852
25,GCAACTAA,0.229

row,Sequence,PBM E-score
1,CGTTTCGC,0.0756
2,AGGGGACT,-0.2
3,GTGCGCAA,-0.127
4,ACCTTTGG,-0.304
5,GAGTTAGC,0.097
6,ACTAACGA,0.0822
7,CGTCGTGA,-0.18
8,CCTTCATA,0.0109
9,GCCCCGCC,0.1
10,AGAGCTGC,-0.181
11,GATAATCC,0.17
12,AGTATAGC,0.113
13,AAGGTAGC,-0.0971
14,CCTGCACG,-0.111
15,ATGCTACA,-0.0162
16,CTATTGAC,0.132
17,CGTAAGAA,0.0745
18,ATAAGCCA,0.11
19,ACAGGTGG,-0.195
20,CGCCCACA,0.16
21,AGCGTTCG,0.0638
22,ATAGGGCG,-0.0574
23,TAAAGGAA,-0.0482
24,CGTAGACC,-0.252
25,AGTGCGTC,-0.12

row,Sequence,PBM E-score
1,CGCGTACA,-0.081
2,GACCATAA,-0.0597
3,ACAGTTAC,0.0239
4,AACCACGC,-0.0367
5,CTATGGTA,0.107
6,ACAATATC,0.214
7,CGGTCGGA,-0.213
8,GATTGTCC,-0.129
9,GCTCACGA,-0.0418
10,CCGCCGGA,-0.00456
11,AACCAAGC,-0.0367
12,ATGCTGTC,-0.00139
13,ATGCGTGA,0.0573
14,AGGAGCAG,-0.247
15,CATTACTC,0.0453
16,GTAATGAA,0.162
17,AAACCATT,0.045
18,CCGCATAG,0.0714
19,GCTTAAAC,-0.144
20,CTCGCCAA,0.0055
21,ATTTGGTG,0.0979
22,ATCACCGG,-0.118
23,ATTCCGTA,0.115
24,ACCATGTA,0.102
25,CCTGAGTC,-0.0597

row,Sequence,PBM E-score
1,GAGAACGC,-0.0459
2,ATGTGCCC,-0.0254
3,GTGAGGCA,-0.0433
4,CTAAGGAA,-0.0525
5,CCCCCTCC,-0.403
6,ACACATGG,0.0516
7,AAACTCGA,0.125
8,CTGCTCGA,-0.118
9,ACCATATG,0.0375
10,TAGCCCCA,0.187
11,AGGTCCAG,0.0191
12,CAGAAGAC,-0.0176
13,CGCGTGCC,0.0722
14,CTTTGCTA,0.0754
15,CGCCGTAA,0.122
16,GCGTTTAC,0.0151
17,AAGTCCCT,-0.204
18,TCCCCTCA,0.201
19,GGAGAAGA,-0.131
20,CGGCTGTA,-0.111
21,CTCCTGAA,-0.0295
22,AACCGAAG,0.0257
23,AGACGTAA,0.0955
24,AAGATACC,0.15
25,GCCCTGCA,-0.142

row,Sequence,PBM E-score
1,CCTGCGAG,-0.0365
2,GCTAGACA,-0.122
3,GGATAGAA,0.109
4,AGGTAACG,-0.039
5,AAGGGCGT,-0.204
6,CATTTTCG,0.0912
7,CACTCTCG,0.116
8,ACAGGCTA,-0.0671
9,TGATTAAA,0.0915
10,ACCGAGAT,0.132
11,ATTTTAAG,0.0394
12,CATTACCC,-0.0213
13,CGTGATAG,-0.14
14,CGGTTACA,0.118
15,CTAAACTA,0.0914
16,CATCGCCC,-0.21
17,CGCCCAAG,-0.181
18,TCGAATAA,0.0954
19,CCAGACAC,-0.172
